Test results published in patent publication US20220401450A1, “PEDIATRIC FORMULATIONS FOR TREATMENT OF CANCER” (CELGENE CORPORATION, priority 2019, published 2022).

Assay: Preliminary taste (palatability) assessment, swish-and-expectorate by trained panelists
Assay type: in vivo, human

## CC(C)(CNc1nc(Nc2ccnc(C(F)(F)F)c2)nc(-c2cccc(C(F)(F)F)n2)n1)OS(C)(=O)=O [Compound 1B, 2-methyl-1-[(4-[6-(trifluoromethyl)pyridin-2-yl]-6-{[2-(trifluoromethyl)pyridin-4-yl]amino}-1,3,5-triazin-2-yl)amino]propan-2-ol methanesulfonate]
At 20 mg
  taste masking challenge (bitterness): low taste masking challenge
At 60 mg
  taste masking challenge (bitterness): moderate taste masking challenge
In vivo
  amount below which bitterness was no longer perceptible: Below 7 mg
